The results in this text go back to PubChem BioAssay AID2685 (National Center for Advancing Translational Sciences (NCATS), 2010).

The list shows a part of the results. Further columns of the screen follow, without active or inactive calls. Compounds called inactive in the main read-out are mostly missing here. Words in brackets tell the shape of the fitted curve; partial curves, single points and poor fits give uncertain potencies.

A short description of this test: qHTS Assay for Lipid Storage Modulators in Drosophila S3 Cells.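 As to cell number change: cells counted by Cell Tracker Red CMTPX staining in the red channel.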 The settings on record: BODIPY lipid droplet fluorescence, 18-24 h; for cell number change: measured here: cell count max response, cells fed with added oleic acid. Summed up:
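Drosophila S3 cells got compounds at several concentrations plus oleic acid (400 uM solution). Laser-scanning cytometry with 488 nm excitation read lipid droplets at 500-530 nm and cells at 575-640 nm. Percent activity was relative to 20 uM Triacsin C.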

The mark [1] stands for this setting: measured here: lipid fluorescence (Fed channel) AC50, cells fed with added oleic acid.
The mark [2] stands for this setting: measured here: cell number channel AC50, cells fed with added oleic acid.

On to `Cc1nn(Cc2c(F)c(F)c(F)c(F)c2F)c(C)c1NC(=O)c1cccc(COc2ccc(Cl)cc2)c1`, for which the cell number change was 18%. In addition, under setting [1], the AC50 was 7.31 µM [rising, single point].
Take `CC(=N\NC(=O)c1cc(Br)ccc1O)/C(=N/O)C(=O)Nc1ccccc1`: the cell number change is -17.7%. The AC50 under setting [1] is 6.51 µM [rising, single point].
Regarding `CCOC(=O)NC(=O)COC(=O)CCCc1nc2ccccc2s1`, the cell number change is -15.9%. In addition, under setting [1], the AC50 is 0.00461 µM [falling, full curve, poor fit].
Consider `Cc1cc(C)cc(-n2c(C)cc(/C=C3\C(=N)N4N=C(CC(C)C)SC4=NC3=O)c2C)c1`, for which the cell number change is -24.1%. Also, the AC50 under setting [1] is 29.1 µM [falling, partial curve].
Consider `CCOc1ccccc1CN1C(=O)c2ccccc2C1C(=O)NC(C)CC` (stereo not drawn), for which the cell number change was -11.2%. Under setting [1], the AC50 is 20.6 µM [rising, single point].
Turning to `COc1ccc(Cl)cc1NC(=O)CN(C)CC(=O)N1CC(=O)Nc2ccccc21`, the AC50 under setting [1] is 0.259 µM [falling, full curve].
Turning to `O=C(O)CCC(C(=O)O)n1c(O)c(C2=c3ccccc3=NC2=O)sc1=S` (stereo not drawn), the cell number change is -8.79%. Also, the AC50 under setting [1] was 0.58 µM [falling, full curve].
Consider `COC1CCN(C(=O)c2cc(COc3ccc(-n4cncn4)cc3)on2)CC1`, for which the cell number change worked out at 79.9%. The AC50 under setting [2] was 14.6 µM [rising, partial curve]. The AC50 under setting [1] is 20.6 µM [rising, partial curve].
`CCNC(=S)NC1CC2CCCC(C1)N2Cc1ccc(C)cc1` (stereo not drawn): the cell number change came out at 2.89%.
Consider `O=C(NCCN1CCCC1)c1ccc(Cl)cc1`, for which the cell number change is -3.37%. Moreover, under setting [1], the AC50 is 1.64 µM [falling, partial curve].
For the compound `Cc1cccc(NC(=O)CSCC(=O)Nc2ccccc2N2CCCCC2)c1`, the cell number change was 12.9%. For the same compound, under setting [2], the AC50 was 0.326 µM [rising, full curve, poor fit]. Further, the AC50 under setting [1] was 0.411 µM [rising, full curve].
On to `O=C(CN(C(=O)c1csnn1)c1ccccc1F)NC1CCCCC1`, for which the cell number change amounted to 16%. For the same compound, under setting [1], the AC50 is 0.00517 µM [falling, full curve, poor fit].
With `CCOC(=O)c1ccc(NC(=S)N2CCSC2c2ccc(OC)cc2)cc1` (stereo not drawn), the cell number change was 16.7%. Moreover, the AC50 under setting [1] was 23.1 µM [falling, partial curve, poor fit].
As for `COC(=O)c1sccc1NC(=O)Cn1cnc2c1c(=O)n(C)c(=O)n2C`, the cell number change was -9.91%. In addition, under setting [1], the AC50 was 29.1 µM [falling, single point].
In the case of `COc1cc(-c2ccccc2)[nH]c(=S)n1`, the cell number change is 4.57%. Further, the AC50 under setting [1] is 29.1 µM [rising, single point].
On to `COc1ccc(CN2C(=O)C(=O)N(CC(N)=O)C2=O)cc1`, for which the cell number change was 54%. Moreover, the AC50 under setting [2] was 4.11 µM [rising, full curve, poor fit]. Moreover, the AC50 under setting [1] was 3.26 µM [rising, full curve].
Regarding `Cc1ccc2cc(/C=N/Nc3ccc(C(=O)O)cc3)c(Cl)nc2c1`, the cell number change amounted to 53.8%. For the same compound, the AC50 under setting [2] was 16.4 µM [rising, partial curve, poor fit]. Further, the AC50 under setting [1] is 0.0651 µM [rising, full curve, poor fit].
Regarding `CCC(=O)Nc1nc2ccc3nc(C)sc3c2s1`, the AC50 under setting [1] was 0.58 µM [rising, full curve].
Regarding `CCNC(=O)COC(=O)/C=C/c1cccc(F)c1`, the cell number change was found to be 8.88%. Also, the AC50 under setting [2] is 6.51 µM [rising, partial curve, poor fit]. Further, the AC50 under setting [1] is 6.51 µM [rising, partial curve].
On to `O=C(O)c1csc(-c2cccs2)n1`, for which the cell number change is -35.2%. Moreover, the AC50 under setting [2] was 0.00461 µM [falling, full curve, poor fit]. Moreover, under setting [1], the AC50 is 7.31 µM [falling, partial curve].
For the compound `Cc1nc2ccccc2c(=O)n1NC(=O)C1CC1C` (stereo not drawn), the cell number change worked out at 15.1%.
As to `Cc1cc(C)nc(Nc2ccccc2Br)n1`, the cell number change was -36.3%. Also, the AC50 under setting [2] was 18.4 µM [falling, partial curve]. Besides, the AC50 under setting [1] was 32.6 µM [falling, single point].
`CCOC(=O)C1CCCN(C(=O)COC(=O)c2cc(=O)c3ccccc3o2)C1` (stereo not drawn): the cell number change was -23.2%. The AC50 under setting [2] is 0.13 µM [falling, full curve]. The AC50 under setting [1] was 0.13 µM [falling, full curve].
Consider `COc1cccc(CN2CC(C(=O)N(C)Cc3ccnc4ccccc34)CCC2=O)c1` (stereo not drawn), for which the cell number change is -10.7%. In addition, the AC50 under setting [1] was 4.61 µM [rising, full curve, poor fit].
For the compound `Cc1ccc(O)c(-c2cc(-c3ccccc3C)[nH]n2)c1`, the cell number change was -79.2%. The AC50 under setting [2] is 18.4 µM [falling, partial curve]. Moreover, under setting [1], the AC50 is 29.1 µM [falling, single point].
Take `Cc1cc(Cl)ccc1NC(=O)CN1C(=O)CSc2ccc(S(=O)(=O)N3CCOCC3)cc21`: the cell number change was 38.7%. Further, the AC50 under setting [2] was 0.013 µM [rising, full curve, poor fit]. In addition, under setting [1], the AC50 is 13 µM [rising, partial curve].
Turning to `N=c1n(Cc2ccccc2)c2ccccc2n1CC(O)c1ccco1` (stereo not drawn), the AC50 under setting [1] is 0.058 µM [falling, full curve, poor fit].
With `CNC(=O)c1ccc(NC(=O)Nc2ccccc2)cc1`, the AC50 under setting [1] is 18.4 µM [rising, single point].
For the compound `CCC(C)NC(=O)CSc1nc(-c2cccs2)cc(C(F)(F)F)n1` (stereo not drawn), the AC50 was 0.13 µM [rising, full curve, poor fit] under setting [2] and 0.326 µM [rising, full curve] under setting [1].
For the compound `COc1cccc2sc(NNC(=O)C3COc4ccccc4O3)nc12` (stereo not drawn), the cell number change is 1.11%. Also, under setting [2], the AC50 was 0.651 µM [falling, single point].
For the compound `Cc1nnc(Sc2cc(NCCO)c([N+](=O)[O-])c3nonc23)s1`, under setting [1], the AC50 is 3.26 µM [falling, single point].
As to `O=C1CC(=O)N(Cc2ccco2)C(=O)N1`, the cell number change is -25.6%. Moreover, the AC50 under setting [1] was 4.61 µM [falling, full curve].
Take `O=C(Cc1ccc(Cl)cc1)NNC(=O)C1CC=CCC1C(=O)O` (stereo not drawn): under setting [1], the AC50 was 29.1 µM [falling, single point].
`CC(=O)N1CCN(c2cc(N3CCc4ccccc4C3)c(F)cc2[N+](=O)[O-])CC1`: the cell number change was 69.9%.
As to `COc1cc(/C(=C/c2ccccc2)c2ccccc2)c2c(c1)oc1ccccc12`, the cell number change is 40.8%. Also, the AC50 under setting [2] is 4.61 µM [rising, partial curve, poor fit]. The AC50 under setting [1] is 29.1 µM [rising, single point].
As for `C=CCn1c(COc2ccc(Cl)cc2)nnc1SCC(=O)c1c(N)n(C)c(=O)n(C)c1=O`, under setting [2], the AC50 is 0.164 µM [rising, full curve, poor fit].
